Measured values: publication PMC6518688
These are yes or no findings as the source states them, for the method shown. In cells and extracts the contact can be indirect. Some binding calls cover weakened binding; strength is not graded here.

Amino acid sequences for entries named in this document (tags omitted).
UniProt Q07157: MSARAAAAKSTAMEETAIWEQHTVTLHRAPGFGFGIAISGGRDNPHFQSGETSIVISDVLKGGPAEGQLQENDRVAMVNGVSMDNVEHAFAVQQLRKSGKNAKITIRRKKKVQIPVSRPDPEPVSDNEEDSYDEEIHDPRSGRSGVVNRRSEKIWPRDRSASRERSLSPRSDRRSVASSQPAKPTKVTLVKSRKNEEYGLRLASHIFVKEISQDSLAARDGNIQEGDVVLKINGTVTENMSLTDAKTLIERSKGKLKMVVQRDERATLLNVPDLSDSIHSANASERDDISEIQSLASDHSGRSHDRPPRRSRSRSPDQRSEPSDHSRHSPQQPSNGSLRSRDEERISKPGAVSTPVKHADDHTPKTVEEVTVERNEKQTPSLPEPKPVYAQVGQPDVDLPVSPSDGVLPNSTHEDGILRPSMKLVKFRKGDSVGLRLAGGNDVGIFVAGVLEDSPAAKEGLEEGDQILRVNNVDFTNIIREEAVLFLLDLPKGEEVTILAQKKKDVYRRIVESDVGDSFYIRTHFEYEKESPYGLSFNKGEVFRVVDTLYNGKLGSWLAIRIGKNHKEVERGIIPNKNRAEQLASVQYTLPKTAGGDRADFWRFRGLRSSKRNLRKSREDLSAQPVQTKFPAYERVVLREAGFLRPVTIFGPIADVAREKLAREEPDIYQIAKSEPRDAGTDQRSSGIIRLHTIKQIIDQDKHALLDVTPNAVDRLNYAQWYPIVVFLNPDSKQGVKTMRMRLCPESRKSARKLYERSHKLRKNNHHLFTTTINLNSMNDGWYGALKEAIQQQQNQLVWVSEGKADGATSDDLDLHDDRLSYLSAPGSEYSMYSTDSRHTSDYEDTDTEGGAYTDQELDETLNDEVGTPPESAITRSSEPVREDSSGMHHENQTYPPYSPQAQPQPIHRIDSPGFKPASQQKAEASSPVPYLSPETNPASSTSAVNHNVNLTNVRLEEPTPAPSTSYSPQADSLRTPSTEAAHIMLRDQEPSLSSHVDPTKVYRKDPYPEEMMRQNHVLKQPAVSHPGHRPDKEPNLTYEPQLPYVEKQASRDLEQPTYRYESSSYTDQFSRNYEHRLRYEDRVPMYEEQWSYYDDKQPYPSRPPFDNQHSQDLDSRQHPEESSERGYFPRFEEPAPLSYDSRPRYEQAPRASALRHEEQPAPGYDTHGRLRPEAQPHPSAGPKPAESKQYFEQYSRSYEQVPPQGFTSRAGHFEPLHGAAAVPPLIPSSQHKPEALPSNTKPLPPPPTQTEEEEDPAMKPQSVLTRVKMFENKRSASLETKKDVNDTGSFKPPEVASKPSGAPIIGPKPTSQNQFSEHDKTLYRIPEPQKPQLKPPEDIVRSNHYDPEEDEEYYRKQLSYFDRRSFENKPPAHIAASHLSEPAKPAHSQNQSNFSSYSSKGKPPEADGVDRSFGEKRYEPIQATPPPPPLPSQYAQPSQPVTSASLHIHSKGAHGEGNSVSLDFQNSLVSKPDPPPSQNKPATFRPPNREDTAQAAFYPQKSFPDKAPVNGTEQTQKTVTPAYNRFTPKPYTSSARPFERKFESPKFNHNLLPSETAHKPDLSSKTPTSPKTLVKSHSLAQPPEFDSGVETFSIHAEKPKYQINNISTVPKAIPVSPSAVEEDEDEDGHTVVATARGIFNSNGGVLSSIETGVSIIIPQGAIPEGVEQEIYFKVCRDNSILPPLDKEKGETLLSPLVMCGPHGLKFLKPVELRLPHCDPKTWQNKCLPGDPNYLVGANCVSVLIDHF
UniProt P13569: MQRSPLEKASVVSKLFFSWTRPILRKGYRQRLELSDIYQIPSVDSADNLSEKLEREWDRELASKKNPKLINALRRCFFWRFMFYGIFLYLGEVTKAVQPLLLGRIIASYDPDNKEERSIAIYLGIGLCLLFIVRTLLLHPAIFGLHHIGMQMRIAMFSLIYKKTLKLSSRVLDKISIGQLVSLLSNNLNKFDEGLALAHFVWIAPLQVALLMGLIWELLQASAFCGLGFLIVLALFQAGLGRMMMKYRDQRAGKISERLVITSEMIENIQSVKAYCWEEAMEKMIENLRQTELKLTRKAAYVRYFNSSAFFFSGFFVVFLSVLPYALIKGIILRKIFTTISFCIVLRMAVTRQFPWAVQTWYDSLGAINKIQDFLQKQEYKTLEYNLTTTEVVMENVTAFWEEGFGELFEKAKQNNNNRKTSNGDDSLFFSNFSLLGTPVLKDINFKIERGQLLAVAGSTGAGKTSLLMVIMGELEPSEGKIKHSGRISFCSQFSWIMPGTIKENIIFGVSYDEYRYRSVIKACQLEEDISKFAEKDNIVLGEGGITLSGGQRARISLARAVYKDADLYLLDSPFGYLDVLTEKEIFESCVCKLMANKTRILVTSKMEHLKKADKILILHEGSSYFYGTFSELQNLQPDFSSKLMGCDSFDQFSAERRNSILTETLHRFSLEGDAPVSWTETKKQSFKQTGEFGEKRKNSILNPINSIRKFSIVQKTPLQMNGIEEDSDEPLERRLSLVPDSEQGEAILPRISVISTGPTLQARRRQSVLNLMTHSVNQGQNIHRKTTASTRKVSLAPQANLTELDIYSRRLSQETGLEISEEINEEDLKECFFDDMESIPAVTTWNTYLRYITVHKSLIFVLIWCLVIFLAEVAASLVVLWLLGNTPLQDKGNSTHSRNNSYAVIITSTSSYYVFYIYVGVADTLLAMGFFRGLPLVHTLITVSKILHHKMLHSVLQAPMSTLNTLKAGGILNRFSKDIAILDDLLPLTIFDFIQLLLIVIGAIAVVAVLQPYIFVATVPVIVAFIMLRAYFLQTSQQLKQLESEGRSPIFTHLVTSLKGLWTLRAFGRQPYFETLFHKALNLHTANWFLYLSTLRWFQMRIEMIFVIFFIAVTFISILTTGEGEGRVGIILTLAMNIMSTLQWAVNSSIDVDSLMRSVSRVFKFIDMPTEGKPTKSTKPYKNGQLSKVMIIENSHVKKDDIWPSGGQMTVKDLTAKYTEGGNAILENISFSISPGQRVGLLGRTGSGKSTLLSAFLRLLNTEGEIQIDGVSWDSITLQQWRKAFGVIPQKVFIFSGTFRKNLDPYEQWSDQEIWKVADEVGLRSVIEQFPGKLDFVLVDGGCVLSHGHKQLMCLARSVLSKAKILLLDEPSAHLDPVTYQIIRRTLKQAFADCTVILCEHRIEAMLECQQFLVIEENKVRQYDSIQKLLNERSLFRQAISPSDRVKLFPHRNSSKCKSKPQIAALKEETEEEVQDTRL

Target: T1, SLC26A3 (solute carrier family 26 member 3), wild type (human (endogenous in Caco-2)) (UniProt P40879)
T1 sequence: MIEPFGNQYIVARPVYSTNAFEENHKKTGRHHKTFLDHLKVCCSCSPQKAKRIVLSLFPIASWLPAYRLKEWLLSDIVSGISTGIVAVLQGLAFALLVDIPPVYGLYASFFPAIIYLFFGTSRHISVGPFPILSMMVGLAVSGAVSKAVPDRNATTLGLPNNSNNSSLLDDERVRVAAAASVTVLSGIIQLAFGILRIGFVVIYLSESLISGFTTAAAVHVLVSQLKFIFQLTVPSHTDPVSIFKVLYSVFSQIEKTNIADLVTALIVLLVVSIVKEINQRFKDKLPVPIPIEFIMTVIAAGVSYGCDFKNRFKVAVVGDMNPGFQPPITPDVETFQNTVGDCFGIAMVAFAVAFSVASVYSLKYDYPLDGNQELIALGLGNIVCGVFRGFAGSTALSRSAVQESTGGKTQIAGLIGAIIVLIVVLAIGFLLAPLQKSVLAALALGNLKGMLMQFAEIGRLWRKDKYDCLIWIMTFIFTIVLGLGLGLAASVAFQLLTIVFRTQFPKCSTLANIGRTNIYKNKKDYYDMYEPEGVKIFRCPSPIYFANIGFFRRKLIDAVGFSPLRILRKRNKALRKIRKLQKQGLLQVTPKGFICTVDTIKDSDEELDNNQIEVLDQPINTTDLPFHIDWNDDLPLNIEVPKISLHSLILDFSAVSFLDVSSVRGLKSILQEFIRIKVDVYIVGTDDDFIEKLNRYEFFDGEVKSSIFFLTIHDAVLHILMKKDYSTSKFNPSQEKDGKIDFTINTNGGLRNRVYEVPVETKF
Experiment: co-IP; endogenous; Caco-2 WT, P131R and RWT lysates (non-denaturing lysis buffer, 500 µg protein) with 2 µg SLC26A3 antibody overnight at 4 °C, protein A/G Sepharose beads, immunoblot; IgG as negative control

With ZO-1 (from UniProt Q07157 1-1748) the binding was “binds”.
“cystic fibrosis transmembrane conductance regulator (CFTR) (from UniProt P13569 1-1480)” was tested, and the binding was “binds”.
